Measurements taken from the supplement of paper PMC10849652.
Some of the results follow.

Amino acid sequences for entries named in this document (tags omitted). A change or cut given only in a name is not applied to a line headed by its entry.
UniProt Q96FZ2: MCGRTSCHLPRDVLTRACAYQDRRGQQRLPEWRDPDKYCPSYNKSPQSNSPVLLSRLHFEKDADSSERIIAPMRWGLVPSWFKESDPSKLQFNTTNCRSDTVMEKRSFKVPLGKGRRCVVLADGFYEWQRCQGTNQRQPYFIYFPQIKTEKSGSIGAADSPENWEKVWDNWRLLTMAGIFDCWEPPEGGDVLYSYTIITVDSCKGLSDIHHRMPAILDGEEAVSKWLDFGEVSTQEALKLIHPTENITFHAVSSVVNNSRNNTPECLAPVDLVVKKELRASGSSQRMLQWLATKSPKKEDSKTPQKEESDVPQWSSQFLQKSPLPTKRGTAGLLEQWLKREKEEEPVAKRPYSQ
UniProt Q5SSJ5: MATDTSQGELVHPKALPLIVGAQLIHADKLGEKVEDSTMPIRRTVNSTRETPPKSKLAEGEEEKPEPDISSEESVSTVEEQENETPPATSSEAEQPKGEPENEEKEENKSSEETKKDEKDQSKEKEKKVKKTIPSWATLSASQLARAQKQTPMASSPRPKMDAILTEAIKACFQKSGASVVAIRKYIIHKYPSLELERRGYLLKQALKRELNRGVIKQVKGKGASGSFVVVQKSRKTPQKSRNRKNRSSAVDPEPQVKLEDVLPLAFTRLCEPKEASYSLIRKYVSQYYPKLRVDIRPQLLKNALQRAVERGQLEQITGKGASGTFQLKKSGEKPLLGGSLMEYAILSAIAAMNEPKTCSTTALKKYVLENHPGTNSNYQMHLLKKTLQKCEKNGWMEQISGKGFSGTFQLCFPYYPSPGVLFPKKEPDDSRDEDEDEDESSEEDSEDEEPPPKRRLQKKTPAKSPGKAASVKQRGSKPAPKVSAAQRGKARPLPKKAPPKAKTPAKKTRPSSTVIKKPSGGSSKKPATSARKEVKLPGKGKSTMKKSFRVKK
UniProt Q8WVV9: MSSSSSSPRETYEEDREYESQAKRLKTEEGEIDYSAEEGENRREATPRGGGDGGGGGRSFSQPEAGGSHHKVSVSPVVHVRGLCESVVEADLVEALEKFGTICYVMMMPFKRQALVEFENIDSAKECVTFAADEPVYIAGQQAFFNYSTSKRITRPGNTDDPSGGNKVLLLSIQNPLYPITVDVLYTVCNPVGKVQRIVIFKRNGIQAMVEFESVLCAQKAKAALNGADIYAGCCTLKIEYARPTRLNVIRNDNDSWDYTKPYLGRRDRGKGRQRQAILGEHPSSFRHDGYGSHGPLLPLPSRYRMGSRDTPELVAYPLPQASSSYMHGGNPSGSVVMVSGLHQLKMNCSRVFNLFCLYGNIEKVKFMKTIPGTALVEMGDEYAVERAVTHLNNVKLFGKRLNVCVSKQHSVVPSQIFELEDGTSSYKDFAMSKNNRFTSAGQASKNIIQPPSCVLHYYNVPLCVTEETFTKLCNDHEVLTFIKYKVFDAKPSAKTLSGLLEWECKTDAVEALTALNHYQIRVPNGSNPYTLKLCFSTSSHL
UniProt P52597: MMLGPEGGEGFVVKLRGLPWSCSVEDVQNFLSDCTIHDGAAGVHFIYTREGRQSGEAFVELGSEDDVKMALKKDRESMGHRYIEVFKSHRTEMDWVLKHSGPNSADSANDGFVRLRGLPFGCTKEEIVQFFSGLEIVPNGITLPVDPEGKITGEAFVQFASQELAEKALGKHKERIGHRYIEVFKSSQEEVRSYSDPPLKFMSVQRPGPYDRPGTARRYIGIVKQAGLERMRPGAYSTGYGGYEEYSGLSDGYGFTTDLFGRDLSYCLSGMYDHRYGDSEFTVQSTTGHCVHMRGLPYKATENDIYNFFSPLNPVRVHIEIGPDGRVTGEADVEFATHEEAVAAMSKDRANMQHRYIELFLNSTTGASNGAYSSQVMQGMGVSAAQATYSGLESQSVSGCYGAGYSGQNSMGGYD
UniProt Q9BXL5: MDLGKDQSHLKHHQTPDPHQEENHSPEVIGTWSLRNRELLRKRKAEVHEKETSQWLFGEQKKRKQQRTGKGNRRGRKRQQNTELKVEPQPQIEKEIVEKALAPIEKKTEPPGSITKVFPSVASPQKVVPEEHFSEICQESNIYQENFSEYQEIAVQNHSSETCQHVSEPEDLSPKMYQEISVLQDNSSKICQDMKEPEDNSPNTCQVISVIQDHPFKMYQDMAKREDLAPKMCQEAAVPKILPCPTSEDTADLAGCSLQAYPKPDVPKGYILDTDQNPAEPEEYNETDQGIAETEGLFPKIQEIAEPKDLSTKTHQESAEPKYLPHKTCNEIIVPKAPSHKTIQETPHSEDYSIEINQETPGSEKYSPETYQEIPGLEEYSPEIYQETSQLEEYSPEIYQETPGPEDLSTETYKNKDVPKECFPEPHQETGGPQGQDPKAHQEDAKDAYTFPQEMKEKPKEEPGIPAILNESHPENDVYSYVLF
UniProt P14866: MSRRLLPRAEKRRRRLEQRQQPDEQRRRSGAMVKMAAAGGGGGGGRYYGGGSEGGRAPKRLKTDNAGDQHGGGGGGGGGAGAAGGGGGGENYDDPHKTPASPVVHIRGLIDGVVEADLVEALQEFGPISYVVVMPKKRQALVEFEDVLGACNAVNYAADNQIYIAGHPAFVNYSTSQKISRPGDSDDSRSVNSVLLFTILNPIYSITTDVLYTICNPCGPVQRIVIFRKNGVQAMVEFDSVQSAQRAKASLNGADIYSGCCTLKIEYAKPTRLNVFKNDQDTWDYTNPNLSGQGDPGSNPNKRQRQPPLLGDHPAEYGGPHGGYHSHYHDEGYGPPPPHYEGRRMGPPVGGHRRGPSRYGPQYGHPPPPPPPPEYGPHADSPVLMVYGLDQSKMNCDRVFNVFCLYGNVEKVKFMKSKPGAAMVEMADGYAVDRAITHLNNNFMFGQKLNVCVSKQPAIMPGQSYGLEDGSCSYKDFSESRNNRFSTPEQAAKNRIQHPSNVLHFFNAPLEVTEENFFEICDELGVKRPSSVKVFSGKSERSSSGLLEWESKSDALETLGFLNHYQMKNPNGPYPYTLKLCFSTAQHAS
UniProt P31943: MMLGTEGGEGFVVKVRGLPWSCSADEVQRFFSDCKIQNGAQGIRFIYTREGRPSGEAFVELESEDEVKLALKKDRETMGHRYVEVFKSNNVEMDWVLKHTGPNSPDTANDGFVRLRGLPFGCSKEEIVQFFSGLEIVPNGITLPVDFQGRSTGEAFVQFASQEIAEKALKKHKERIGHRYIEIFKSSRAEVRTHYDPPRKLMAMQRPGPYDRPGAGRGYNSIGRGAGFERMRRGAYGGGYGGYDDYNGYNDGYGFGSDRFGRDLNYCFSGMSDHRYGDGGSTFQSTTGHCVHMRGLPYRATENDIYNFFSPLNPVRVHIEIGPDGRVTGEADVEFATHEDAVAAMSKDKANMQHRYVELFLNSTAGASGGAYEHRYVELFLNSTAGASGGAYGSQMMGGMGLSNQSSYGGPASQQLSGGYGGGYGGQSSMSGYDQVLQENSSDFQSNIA
UniProt P23327: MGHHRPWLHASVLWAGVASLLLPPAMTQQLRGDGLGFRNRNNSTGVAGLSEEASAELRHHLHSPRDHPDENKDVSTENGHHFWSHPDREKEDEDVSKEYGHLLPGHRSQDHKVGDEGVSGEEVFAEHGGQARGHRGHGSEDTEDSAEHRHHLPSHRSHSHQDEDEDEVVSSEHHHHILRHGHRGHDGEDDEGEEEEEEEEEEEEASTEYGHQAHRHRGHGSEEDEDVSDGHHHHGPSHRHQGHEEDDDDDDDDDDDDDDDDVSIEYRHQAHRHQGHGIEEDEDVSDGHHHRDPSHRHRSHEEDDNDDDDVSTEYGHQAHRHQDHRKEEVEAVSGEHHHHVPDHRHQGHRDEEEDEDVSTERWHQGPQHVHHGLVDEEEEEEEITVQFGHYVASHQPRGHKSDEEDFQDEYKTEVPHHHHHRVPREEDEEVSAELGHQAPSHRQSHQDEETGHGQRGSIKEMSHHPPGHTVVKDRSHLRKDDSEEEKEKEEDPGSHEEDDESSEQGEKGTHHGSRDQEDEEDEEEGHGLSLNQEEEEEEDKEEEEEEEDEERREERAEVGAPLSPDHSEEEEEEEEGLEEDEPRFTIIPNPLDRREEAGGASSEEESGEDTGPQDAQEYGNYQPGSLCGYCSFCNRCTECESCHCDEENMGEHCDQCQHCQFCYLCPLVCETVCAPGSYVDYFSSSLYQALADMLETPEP
UniProt Q9BQS7: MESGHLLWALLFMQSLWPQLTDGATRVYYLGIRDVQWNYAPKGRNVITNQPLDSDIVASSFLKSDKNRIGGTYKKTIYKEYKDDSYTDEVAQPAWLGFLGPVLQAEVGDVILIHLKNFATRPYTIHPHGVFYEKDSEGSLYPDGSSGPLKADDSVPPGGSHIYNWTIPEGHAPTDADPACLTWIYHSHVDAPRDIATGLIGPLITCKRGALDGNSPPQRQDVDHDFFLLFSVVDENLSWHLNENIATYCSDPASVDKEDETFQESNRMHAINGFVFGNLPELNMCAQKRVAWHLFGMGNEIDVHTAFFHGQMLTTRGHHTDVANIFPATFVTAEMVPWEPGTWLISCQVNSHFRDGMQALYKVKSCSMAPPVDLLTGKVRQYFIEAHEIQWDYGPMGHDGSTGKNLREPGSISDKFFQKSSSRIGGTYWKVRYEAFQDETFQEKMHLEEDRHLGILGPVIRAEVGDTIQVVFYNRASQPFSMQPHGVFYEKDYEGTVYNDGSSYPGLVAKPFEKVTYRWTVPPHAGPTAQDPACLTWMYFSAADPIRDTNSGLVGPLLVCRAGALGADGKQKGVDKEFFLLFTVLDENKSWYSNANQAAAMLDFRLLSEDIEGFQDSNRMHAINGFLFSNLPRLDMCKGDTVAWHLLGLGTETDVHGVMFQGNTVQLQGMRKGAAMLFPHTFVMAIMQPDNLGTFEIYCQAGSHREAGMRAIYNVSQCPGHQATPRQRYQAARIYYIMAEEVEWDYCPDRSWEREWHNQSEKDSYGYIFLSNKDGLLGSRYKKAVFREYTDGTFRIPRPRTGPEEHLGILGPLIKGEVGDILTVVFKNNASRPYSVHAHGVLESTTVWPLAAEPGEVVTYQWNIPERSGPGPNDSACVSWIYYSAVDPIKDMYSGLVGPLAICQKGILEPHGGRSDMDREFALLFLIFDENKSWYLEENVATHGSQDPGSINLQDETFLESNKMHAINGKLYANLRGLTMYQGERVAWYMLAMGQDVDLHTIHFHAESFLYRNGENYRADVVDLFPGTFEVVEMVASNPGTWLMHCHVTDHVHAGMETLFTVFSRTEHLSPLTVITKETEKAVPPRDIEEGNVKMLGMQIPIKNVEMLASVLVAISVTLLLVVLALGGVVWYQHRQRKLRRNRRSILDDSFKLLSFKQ
UniProt Q8TCT9: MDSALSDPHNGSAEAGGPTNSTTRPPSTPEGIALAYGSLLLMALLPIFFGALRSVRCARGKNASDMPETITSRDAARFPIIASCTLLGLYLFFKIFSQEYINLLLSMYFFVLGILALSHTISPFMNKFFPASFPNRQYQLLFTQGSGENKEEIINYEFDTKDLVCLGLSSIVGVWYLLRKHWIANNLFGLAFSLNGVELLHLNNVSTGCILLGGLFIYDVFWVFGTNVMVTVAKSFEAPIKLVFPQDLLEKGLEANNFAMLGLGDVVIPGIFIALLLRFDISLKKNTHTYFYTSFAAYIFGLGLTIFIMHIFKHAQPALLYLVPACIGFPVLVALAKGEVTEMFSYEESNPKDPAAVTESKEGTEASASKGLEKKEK
UniProt O14964, whole entry, looked up: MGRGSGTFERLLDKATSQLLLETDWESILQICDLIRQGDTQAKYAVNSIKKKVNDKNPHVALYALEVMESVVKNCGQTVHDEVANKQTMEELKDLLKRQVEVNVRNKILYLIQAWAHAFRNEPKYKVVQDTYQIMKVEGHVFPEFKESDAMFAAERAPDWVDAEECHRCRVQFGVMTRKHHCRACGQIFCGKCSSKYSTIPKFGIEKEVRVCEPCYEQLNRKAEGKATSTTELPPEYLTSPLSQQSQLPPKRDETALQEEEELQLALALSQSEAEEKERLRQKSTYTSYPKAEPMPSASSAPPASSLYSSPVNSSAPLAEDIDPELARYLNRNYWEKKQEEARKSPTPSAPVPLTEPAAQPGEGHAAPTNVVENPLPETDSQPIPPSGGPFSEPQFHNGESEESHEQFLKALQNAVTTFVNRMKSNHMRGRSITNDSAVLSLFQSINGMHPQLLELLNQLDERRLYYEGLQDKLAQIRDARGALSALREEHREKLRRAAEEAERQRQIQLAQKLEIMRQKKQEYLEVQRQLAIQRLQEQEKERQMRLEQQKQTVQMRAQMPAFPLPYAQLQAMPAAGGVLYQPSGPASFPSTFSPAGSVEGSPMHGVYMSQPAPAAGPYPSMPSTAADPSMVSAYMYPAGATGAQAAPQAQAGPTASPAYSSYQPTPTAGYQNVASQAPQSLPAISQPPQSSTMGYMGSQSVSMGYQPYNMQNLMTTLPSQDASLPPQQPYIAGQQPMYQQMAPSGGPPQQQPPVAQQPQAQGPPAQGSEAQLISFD

Key:
Assay in all cases: log2 fold change, soluble protein after heating vs DMSO (PISA); higher = thermal stabilisation; K562 lysate, 10 uM; active = over 0.2 and 3.5 SD of the protein, either way, in both replicates (recomputed)
lapatinib = compound: CS(=O)(=O)CCNCc1ccc(-c2ccc3ncnc(Nc4ccc(OCc5cccc(F)c5)c(Cl)c4)c3c2)o1 [lapatinib]
Method in brief: (§1)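 Values give the log-two fold change in thermal stability against solvent controls, from duplicates. Crude K562 extract at 1 mg/mL protein, made by dounce homogenisation in PBS pH 7.4 with 1 mM MgCl2, was treated with 10 μM compound for 30 min. After 3 min heating across 48°C-58°C, aliquots were pooled, adjusted to 0.5% NP-40 at 4°C and centrifuged at 21,000xg for 90 min. The supernatant was measured by TMTpro 16plex LC-MS/MS with channel sums equalised.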

pictilisib = compound: CS(=O)(=O)N1CCN(Cc2cc3nc(-c4cccc5[nH]ncc45)nc(N4CCOCC4)c3s2)CC1 [pictilisib]
Method in brief: as §1

crizotinib = compound: C[C@@H](Oc1cc(-c2cnn(C3CCNCC3)c2)cnc1N)c1c(Cl)ccc(F)c1Cl [crizotinib]
Method in brief: as §1

[1] = compound: C[C@H](C1=CC=C(C=C1)C(=O)NC2=C3C=CNC3=NC=C2)N
Method in brief: as §1

duvelisib = compound: C[C@H](Nc1ncnc2nc[nH]c12)c1cc2cccc(Cl)c2c(=O)n1-c1ccccc1 [duvelisib]
Method in brief: as §1

gandotinib = compound: Cc1cc(Nc2cc(CN3CCOCC3)c3nc(C)c(Cc4ccc(Cl)cc4F)n3n2)n[nH]1 [gandotinib]
Method in brief: as §1

tozasertib = compound: Cc1cc(Nc2cc(N3CCN(C)CC3)nc(Sc3ccc(NC(=O)C4CC4)cc3)n2)n[nH]1 [tozasertib]
Method in brief: as §1

doramapimod = compound: Cc1ccc(-n2nc(C(C)(C)C)cc2NC(=O)Nc2ccc(OCCN3CCOCC3)c3ccccc23)cc1 [doramapimod]
Method in brief: as §1

bafetinib = compound: Cc1ccc(NC(=O)c2ccc(CN3CC[C@H](N(C)C)C3)c(C(F)(F)F)c2)cc1Nc1nccc(-c2cncnc2)n1 [bafetinib]
Method in brief: as §1

[2] = compound: Cc1cccc(CC(=O)N2CCc3c2ccc(-c2cn(C)c4ncnc(N)c24)c3F)n1
Method in brief: as §1

nilotinib = compound: Cc1cn(-c2cc(NC(=O)c3ccc(C)c(Nc4nccc(-c5cccnc5)n4)c3)cc(C(F)(F)F)c2)cn1 [nilotinib]
Method in brief: as §1

[3] = compound: Cc1nc(Nc2n[nH]c3c2CN(C(=O)N[C@H](CN(C)C)c2ccccc2)C3(C)C)c2sccc2n1
Method in brief: as §1

dasatinib = compound: Cc1nc(Nc2ncc(C(=O)Nc3c(C)cccc3Cl)s2)cc(N2CCN(CCO)CC2)n1 [dasatinib]
Method in brief: as §1

[4] = compound: Cc1ncc(-c2ccnc(Nc3ccc(S(C)(=O)=O)cc3)n2)n1C(C)C
Method in brief: as §1

[5] = compound: Cn1cc(-c2ccc3c(c2)CCN3C(=O)Cc2cccc(C(F)(F)F)c2)c2c(N)ncnc21
Method in brief: as §1

quisinostat = compound: Cn1cc(CNCC2CCN(c3ncc(C(=O)NO)cn3)CC2)c2ccccc21 [quisinostat]
Method in brief: as §1

tipifarnib = compound: Cn1cncc1[C@@](N)(c1ccc(Cl)cc1)c1ccc2c(c1)c(-c1cccc(Cl)c1)cc(=O)n2C [tipifarnib]
Method in brief: as §1

[6] = compound: NC(=O)Nc1cc(-c2cccc(F)c2)sc1C(=O)N[C@H]1CCCNC1
Method in brief: as §1

[7] = compound: NC(=O)c1cnc(N[C@@H]2CCCC[C@@H]2N)nc1Nc1cccc(-n2nccn2)c1
Method in brief: as §1

[8] = compound: NC1(c2ccc(-c3nc4ccn5c(=O)[nH]nc5c4cc3-c3ccccc3)cc2)CCC1
Method in brief: as §1

Measured: log2 fold change

HMCES (UniProt Q96FZ2)
inactive: lapatinib -0.017 | pictilisib 0.025 | crizotinib -0.05 | [1] -0.023 | duvelisib 0.013 | gandotinib 0.004 | tozasertib 0.067 | doramapimod 0.033 | bafetinib 0.004 | [2] 0.046 | nilotinib -0.01 | [3] -0.023 | dasatinib -0.067 | [4] -0.073 | [5] -0.026 | quisinostat -0.092 | tipifarnib -0.021 | [6] 0.064 | [7] -0.005 | [8] -0.007

HP1BP3 (UniProt Q5SSJ5)
inactive: lapatinib -0.017 | pictilisib 0.03 | crizotinib 0.012 | [1] -0.003 | duvelisib 0.034 | gandotinib -0.048 | tozasertib 0.008 | doramapimod -0.043 | bafetinib -0.056 | [2] 0.061 | nilotinib -0.004 | [3] 0.002 | dasatinib -0.023 | [4] -0.025 | [5] 0.013 | quisinostat 0.019 | tipifarnib -0.002 | [6] 0.02 | [7] -0.006 | [8] -0.012

HNRNPLL (UniProt Q8WVV9)
inactive: lapatinib 0.017 | pictilisib -0.026 | crizotinib -0.038 | [1] -0.01 | duvelisib -0.016 | gandotinib -0.031 | tozasertib 0 | doramapimod 0.01 | bafetinib -0.031 | [2] 0.027 | nilotinib -0.031 | [3] 0.009 | dasatinib -0.019 | [4] 0.008 | [5] -0.001 | quisinostat -0.063 | tipifarnib -0.008 | [6] 0.001 | [7] 0.015 | [8] -0.013

HNRNPF (UniProt P52597)
inactive: lapatinib 0.003 | pictilisib 0.013 | crizotinib -0.013 | [1] -0.012 | duvelisib 0.005 | gandotinib 0.041 | tozasertib -0.006 | doramapimod 0.078 | bafetinib -0.013 | [2] 0.008 | nilotinib -0.044 | [3] -0.015 | dasatinib -0.003 | [4] 0.024 | [5] 0.009 | quisinostat -0.062 | tipifarnib -0.019 | [6] 0.029 | [7] -0.013 | [8] -0.039

HK1 isoform 2 (UniProt P19367)
inactive: lapatinib 0 | pictilisib -0.009 | crizotinib -0.023 | [1] -0.026 | duvelisib -0.033 | gandotinib -0.051 | tozasertib 0.038 | doramapimod 0.039 | bafetinib -0.023 | [2] 0.029 | nilotinib 0.011 | [3] 0 | dasatinib -0.026 | [4] -0.005 | [5] -0.008 | quisinostat -0.013 | tipifarnib 0.007 | [6] 0.008 | [7] -0.005 | [8] 0

HEMGN (UniProt Q9BXL5)
inactive: lapatinib -0.007 | pictilisib 0.004 | crizotinib 0.039 | [1] 0.03 | duvelisib -0.014 | gandotinib -0.016 | tozasertib -0.002 | doramapimod -0.032 | bafetinib 0.036 | [2] -0.134 | nilotinib -0.011 | [3] -0.002 | dasatinib 0.021 | [4] 0.013 | [5] 0.011 | quisinostat 0.027 | tipifarnib 0.019 | [6] -0.026 | [7] -0.03 | [8] -0.005

HNRNPL (UniProt P14866)
inactive: lapatinib 0.005 | pictilisib -0.02 | crizotinib -0.042 | [1] 0.018 | duvelisib 0.03 | gandotinib -0.081 | tozasertib -0.011 | doramapimod -0.018 | bafetinib 0.004 | [2] -0.016 | nilotinib -0.011 | [3] -0.015 | dasatinib -0.036 | [4] 0.013 | [5] 0.068 | quisinostat -0.07 | tipifarnib 0.012 | [6] 0.042 | [7] -0.001 | [8] 0.022

HIST2H3A (UniProt Q71DI3)
inactive: lapatinib -0.032 | pictilisib -0.003 | crizotinib -0.003 | [1] -0.015 | duvelisib -0.056 | gandotinib 0.001 | tozasertib -0.02 | doramapimod 0.024 | bafetinib -0.046 | [2] -0.022 | nilotinib -0.006 | [3] -0.02 | dasatinib 0.025 | [4] -0.026 | [5] -0.023 | quisinostat -0.024 | tipifarnib 0.024 | [6] -0.02 | [7] 0.017 | [8] 0.002

HNRNPH1 (UniProt P31943)
inactive: lapatinib 0.023 | pictilisib -0.016 | crizotinib -0.02 | [1] -0.018 | duvelisib 0.012 | gandotinib 0.006 | tozasertib -0.036 | doramapimod 0.043 | bafetinib -0.027 | [2] 0.006 | nilotinib -0.04 | [3] -0.006 | dasatinib -0.02 | [4] 0.016 | [5] -0.007 | quisinostat -0.084 | tipifarnib -0.035 | [6] 0.018 | [7] -0.005 | [8] -0.04

Quoted from the results shown (two entries):
HNRNPLL (UniProt Q8WVV9)
inactive: lapatinib 0.017 | pictilisib -0.026 | crizotinib -0.038 | [1] -0.01 | duvelisib -0.016 | gandotinib -0.031 | tozasertib 0 | doramapimod 0.01 | bafetinib -0.031 | [2] 0.027 | nilotinib -0.031 | [3] 0.009 | dasatinib -0.019 | [4] 0.008 | [5] -0.001 | quisinostat -0.063 | tipifarnib -0.008 | [6] 0.001 | [7] 0.015 | [8] -0.013

HNRNPF (UniProt P52597)
inactive: lapatinib 0.003 | pictilisib 0.013 | crizotinib -0.013 | [1] -0.012 | duvelisib 0.005 | gandotinib 0.041 | tozasertib -0.006 | doramapimod 0.078 | bafetinib -0.013 | [2] 0.008 | nilotinib -0.044 | [3] -0.015 | dasatinib -0.003 | [4] 0.024 | [5] 0.009 | quisinostat -0.062 | tipifarnib -0.019 | [6] 0.029 | [7] -0.013 | [8] -0.039

Following part.

HRC (UniProt P23327)
inactive: lapatinib -0.018 | pictilisib 0.001 | crizotinib -0.04 | [1] -0.014 | duvelisib -0.134 | gandotinib 0.104 | tozasertib -0.042 | doramapimod -0.01 | bafetinib -0.064 | [2] 0.051 | nilotinib 0.006 | [3] 0.025 | dasatinib -0.049 | [4] -0.043 | [5] 0.061 | quisinostat -0.072 | tipifarnib -0.036 | [6] -0.003 | [7] 0.047 | [8] -0.033

HIBADH (UniProt P31937)
inactive: lapatinib 0.01 | pictilisib -0.001 | crizotinib 0.012 | [1] 0.025 | duvelisib -0.016 | gandotinib 0.004 | tozasertib 0 | doramapimod -0.031 | bafetinib 0.044 | [2] -0.042 | nilotinib 0.045 | [3] -0.015 | dasatinib 0.007 | [4] 0.03 | [5] -0.048 | quisinostat 0.047 | tipifarnib 0.05 | [6] -0.008 | [7] -0.012 | [8] -0.015

HEPH isoform 3 (UniProt Q9BQS7)
inactive: lapatinib -0.007 | pictilisib 0.009 | crizotinib -0.008 | [1] -0.023 | duvelisib -0.008 | gandotinib 0.02 | tozasertib 0.048 | doramapimod 0.001 | bafetinib -0.079 | [2] 0.031 | nilotinib -0.047 | [3] -0.023 | dasatinib -0.047 | [4] 0.033 | [5] 0.009 | quisinostat 0.002 | tipifarnib -0.042 | [6] -0.002 | [7] 0.034 | [8] -0.022

HOXB4 (UniProt P17483)
inactive: lapatinib -0.081 | pictilisib -0.086 | crizotinib 0.043 | [1] -0.044 | duvelisib -0.149 | gandotinib -0.017 | tozasertib -0.007 | doramapimod 0.025 | bafetinib -0.052 | [2] 0.025 | nilotinib -0.024 | [3] 0.126 | dasatinib -0.007 | [4] 0.043 | [5] -0.176 | quisinostat -0.009 | tipifarnib 0.008 | [6] -0.059 | [7] 0.085

HM13 (UniProt Q8TCT9)
inactive: lapatinib 0.031 | pictilisib 0.025 | crizotinib 0.043 | [1] 0.158 | duvelisib -0.121 | gandotinib 0.11 | tozasertib -0.17 | doramapimod -0.078 | bafetinib 0.004 | [2] -0.065 | nilotinib 0.107 | [3] 0.015 | dasatinib -0.012 | [4] -0.071 | [5] -0.003 | quisinostat -0.031 | tipifarnib -0.116 | [6] -0.026 | [7] -0.079 | [8] 0

HGS (UniProt O14964)
inactive: lapatinib 0.012 | pictilisib -0.008 | crizotinib 0.025 | [1] 0.031 | duvelisib -0.014 | gandotinib -0.013 | tozasertib -0.009 | doramapimod 0.006 | bafetinib -0.019 | [2] 0.011 | nilotinib -0.013 | [3] 0.002 | dasatinib -0.012 | [4] 0.033 | [5] 0.001 | quisinostat 0.047 | tipifarnib 0.016 | [6] -0.027 | [7] -0.009 | [8] 0.013

HSPA4 (UniProt P34932)
inactive: lapatinib 0.011 | pictilisib -0.003 | crizotinib 0.013 | [1] -0.018 | duvelisib 0.001 | gandotinib 0 | tozasertib 0.006 | doramapimod -0.006 | bafetinib 0.016 | [2] 0.007 | nilotinib -0.013 | [3] 0.017 | dasatinib 0.012 | [4] 0.006 | [5] 0.016 | quisinostat 0.034 | tipifarnib 0.026 | [6] -0.012 | [7] 0.001 | [8] 0.012
